Results are given in words; binding and its absence hold for the method and conditions named. In cells and extracts the contact can be indirect. These calls come from enrichment with a bait or labelling near it, and not all partners need be listed. For some assays here: No binding means not detected with the bait.

The chains behind the UniProt entries cited, without tags or fusion partners. Where a name states a change or a piece, a line headed by the entry shows the natural chain unless it says otherwise.
UniProt Q9P2M4: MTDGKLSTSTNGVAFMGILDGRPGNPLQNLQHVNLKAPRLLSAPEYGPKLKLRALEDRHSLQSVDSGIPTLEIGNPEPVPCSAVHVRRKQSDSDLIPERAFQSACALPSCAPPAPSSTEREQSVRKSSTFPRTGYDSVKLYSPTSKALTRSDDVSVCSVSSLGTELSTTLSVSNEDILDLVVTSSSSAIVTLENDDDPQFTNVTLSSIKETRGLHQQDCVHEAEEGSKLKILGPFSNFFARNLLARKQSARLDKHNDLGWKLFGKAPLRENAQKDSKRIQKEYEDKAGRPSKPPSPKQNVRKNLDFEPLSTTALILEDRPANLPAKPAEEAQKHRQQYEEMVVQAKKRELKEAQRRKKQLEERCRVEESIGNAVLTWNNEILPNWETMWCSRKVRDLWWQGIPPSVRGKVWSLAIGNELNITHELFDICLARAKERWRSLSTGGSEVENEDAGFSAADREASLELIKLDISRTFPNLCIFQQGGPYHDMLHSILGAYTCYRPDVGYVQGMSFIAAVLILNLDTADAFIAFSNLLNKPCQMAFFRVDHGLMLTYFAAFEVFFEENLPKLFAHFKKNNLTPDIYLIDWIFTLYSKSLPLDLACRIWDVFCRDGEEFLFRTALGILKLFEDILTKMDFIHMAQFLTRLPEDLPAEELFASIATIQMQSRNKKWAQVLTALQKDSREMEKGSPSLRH
UniProt Q9Y2L5: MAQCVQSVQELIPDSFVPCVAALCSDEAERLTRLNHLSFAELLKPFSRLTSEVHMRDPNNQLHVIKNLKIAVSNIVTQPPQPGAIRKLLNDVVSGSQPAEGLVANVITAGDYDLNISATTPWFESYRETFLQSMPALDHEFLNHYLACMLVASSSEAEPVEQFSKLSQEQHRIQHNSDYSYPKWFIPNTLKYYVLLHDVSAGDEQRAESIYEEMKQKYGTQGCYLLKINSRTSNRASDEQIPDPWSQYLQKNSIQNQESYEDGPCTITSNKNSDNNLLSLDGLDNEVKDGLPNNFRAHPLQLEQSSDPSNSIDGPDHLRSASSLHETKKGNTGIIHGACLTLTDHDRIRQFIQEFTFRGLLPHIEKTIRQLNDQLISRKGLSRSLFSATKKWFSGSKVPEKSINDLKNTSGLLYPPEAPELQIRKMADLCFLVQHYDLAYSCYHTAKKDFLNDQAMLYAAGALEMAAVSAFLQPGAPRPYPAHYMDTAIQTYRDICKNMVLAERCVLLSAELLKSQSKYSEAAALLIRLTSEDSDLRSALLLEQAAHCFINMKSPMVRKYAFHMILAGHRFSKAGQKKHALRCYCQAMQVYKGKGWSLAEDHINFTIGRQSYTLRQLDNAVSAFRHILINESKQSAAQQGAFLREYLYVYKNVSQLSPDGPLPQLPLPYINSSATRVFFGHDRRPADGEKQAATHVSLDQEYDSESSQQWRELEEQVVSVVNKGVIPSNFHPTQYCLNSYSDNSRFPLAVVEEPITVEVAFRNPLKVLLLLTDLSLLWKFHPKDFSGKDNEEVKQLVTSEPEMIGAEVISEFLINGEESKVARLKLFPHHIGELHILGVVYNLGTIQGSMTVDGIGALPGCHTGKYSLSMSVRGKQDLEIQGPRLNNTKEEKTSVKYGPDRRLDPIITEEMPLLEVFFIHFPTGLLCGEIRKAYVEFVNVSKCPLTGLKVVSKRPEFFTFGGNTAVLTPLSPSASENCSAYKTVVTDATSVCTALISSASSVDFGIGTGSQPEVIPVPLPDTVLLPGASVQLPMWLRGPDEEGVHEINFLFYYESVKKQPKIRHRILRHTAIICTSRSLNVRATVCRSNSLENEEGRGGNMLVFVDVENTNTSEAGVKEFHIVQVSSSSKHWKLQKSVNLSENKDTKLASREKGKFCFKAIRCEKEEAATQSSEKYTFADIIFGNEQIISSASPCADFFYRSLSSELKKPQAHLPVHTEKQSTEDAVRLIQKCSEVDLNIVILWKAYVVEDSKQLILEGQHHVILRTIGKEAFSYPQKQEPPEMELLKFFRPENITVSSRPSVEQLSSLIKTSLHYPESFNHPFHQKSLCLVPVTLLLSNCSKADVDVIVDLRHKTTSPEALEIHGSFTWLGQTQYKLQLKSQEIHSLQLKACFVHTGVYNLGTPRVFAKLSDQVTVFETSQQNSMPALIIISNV
UniProt Q9Y296: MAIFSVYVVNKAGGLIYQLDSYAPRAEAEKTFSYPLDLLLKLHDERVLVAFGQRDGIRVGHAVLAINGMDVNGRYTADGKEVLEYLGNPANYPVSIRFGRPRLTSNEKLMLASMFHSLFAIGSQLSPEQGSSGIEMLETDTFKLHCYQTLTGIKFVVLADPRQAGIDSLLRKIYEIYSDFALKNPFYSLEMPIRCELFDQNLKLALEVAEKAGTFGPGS
UniProt Q8WVT3: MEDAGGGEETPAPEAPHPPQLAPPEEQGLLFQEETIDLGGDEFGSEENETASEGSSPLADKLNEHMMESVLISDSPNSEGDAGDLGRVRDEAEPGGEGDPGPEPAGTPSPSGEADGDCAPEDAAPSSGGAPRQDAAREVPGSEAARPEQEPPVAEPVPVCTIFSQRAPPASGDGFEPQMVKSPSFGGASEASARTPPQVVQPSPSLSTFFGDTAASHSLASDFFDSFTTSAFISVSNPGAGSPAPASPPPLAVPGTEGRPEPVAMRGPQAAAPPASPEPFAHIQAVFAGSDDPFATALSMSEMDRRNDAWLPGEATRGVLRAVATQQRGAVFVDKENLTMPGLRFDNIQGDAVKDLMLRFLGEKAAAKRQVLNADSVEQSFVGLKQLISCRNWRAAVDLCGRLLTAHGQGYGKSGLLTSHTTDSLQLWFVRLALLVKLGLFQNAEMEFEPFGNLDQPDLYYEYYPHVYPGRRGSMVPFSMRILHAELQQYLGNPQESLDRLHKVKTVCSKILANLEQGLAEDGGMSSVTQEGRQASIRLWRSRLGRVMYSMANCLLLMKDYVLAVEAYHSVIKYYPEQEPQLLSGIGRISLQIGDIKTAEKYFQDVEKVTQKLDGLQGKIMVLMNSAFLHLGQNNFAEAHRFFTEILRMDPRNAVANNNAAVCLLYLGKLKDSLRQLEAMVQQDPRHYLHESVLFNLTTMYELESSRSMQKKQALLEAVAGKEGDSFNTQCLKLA

Experiment [1] concerns the target myc‐BioID‐TBC1D14 (UniProt Q9P2M4). As to the kind of experiment: proximity labelling; BioID: HEK293A cells with myc‐BioID or myc‐BioID‐TBC1D14, 50 μM biotin overnight, lysed in TNTE; NON-denatured half on streptavidin resin; mass spectrometry (iBAQ).
Experiment [2] shares this target. Description: proximity labelling; BioID: sample denatured with 1% SDS, 1‐h streptavidin resin pulldown at room temperature, eluted in 2× Laemmli sample buffer plus 3 mM biotin; immunoblot.
Experiment [3] has the same target. As to the kind of experiment: proximity labelling; BioID: HEK293A cells with myc‐BioID‐TBC1D14, 50 μM biotin overnight; half of the sample DENATURED with 1% SDS, streptavidin resin; mass spectrometry (iBAQ).

On to TRAPPC8 (from UniProt Q9Y2L5 1-1435), for which the binding result with myc‐BioID‐TBC1D14 [1], with myc‐BioID‐TBC1D14 [2] and in the experiment with myc‐BioID‐TBC1D14 [3] was “binds” throughout. As to TRAPPC4 (from UniProt Q9Y296 1-219), in the experiment with myc‐BioID‐TBC1D14 [2], the binding result was “no binding”. Same read-out and setting: for “TRAPPC12/TTC15 (from UniProt Q8WVT3 1-735)” the value was “no binding”.

(Values after paper PMC4741301.)
